Data: article doi:10.1101/2023.12.15.571360
These are yes or no findings as the source states them, for the method shown. Binding seen in cells or lysates may run through a third protein. A result given as binding can be weak or reduced; the word gives no strength.

Biological target: GST-Rho–binding domain of Rhotekin (UniProt Q8C6B2)
Experiment: pull-down

binding: binds
Substance: RhoA (from UniProt Q9QUI0 1-193)
